# Measured values reported in US20240366776A1 (Hoffmann-La Roche, published 2024).
# Chains of the proteins cited; added tags and fusions are not shown. Residues count along the entry.
# UniProt Q15116, residues 25-167: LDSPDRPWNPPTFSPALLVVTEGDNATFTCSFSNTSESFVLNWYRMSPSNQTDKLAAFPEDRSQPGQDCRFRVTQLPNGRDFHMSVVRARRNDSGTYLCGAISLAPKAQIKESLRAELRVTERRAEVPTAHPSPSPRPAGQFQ
# UniProt P60568, residues 21-153: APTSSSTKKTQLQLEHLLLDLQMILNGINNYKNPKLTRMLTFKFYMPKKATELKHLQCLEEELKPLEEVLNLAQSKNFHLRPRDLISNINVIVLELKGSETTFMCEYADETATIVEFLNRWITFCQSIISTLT
# No constants are given. Whether binding was seen depends on the method and setting. Some results given as binding are weak or reduced against the parent protein; the word gives no strength.
# Experiments:
# [1] = molecular target: biotinylated recombinant PD1 (PD1-HisAvi, Acro Biosystems PD1-H82E4) (UniProt Q15116); test: ELISA
# [2] = molecular target: IL2 (R&D, 202-IL) (UniProt P60568); test: ELISA
Binder,binding [1],binding [2]
AB002360_7A04v1 scFv (AF003765) (scFv) scFv: MSTSTQVQLVQSGAEVKKPGASVKVSCKASGYTFTDYYMHWVRQAPGQGLEWMGIINPRAGYTSYALKFQGRVTMTRDTSTSTVYMELSSLRSEDTAVYYCTSGWDVWGQGTLVTVSSASGGGGSGGGGSGGGGSHASDIQMTQSPSSLSASVGDRVTITCRASQSISTWLAWYQQKPGKAPKLLIYAASSLDSGVPSRFSGSGSGTDFTLTISSLQPEDFATYYCQQSYSFPVTFGQGTKVEIKAAAGSGSEQKLISEEDLGKPIPNPLLGLDST,binds,binds
AB002370_7A04v3 scFv (AF003775) (scFv) scFv: MSTSTQVQLVQSGAEVKKPGASVKVSCKASGYTFTTYYMHWVRQAPGQGLEWMGIINPRAGYTSYALKFQGRVTMTRDTSTSTVYMELSSLRSEDTAVYYCTSGWDVWGQGTLVTVSSASGGGGSGGGGSGGGGSHASDIQMTQSPSSLSASVGDRVTITCRASQSISTWLAWYQQKPGKAPKLLIYAASSLDSGVPSRFSGSGSGTDFTLTISSLQPEDFATYYCQQSYSFPVTFGQGTKVEIKAAAGSGSEQKLISEEDLGKPIPNPLLGLDST,binds,binds
AB002381_7A04v4 scFv (AF003786) (scFv) scFv: MSTSTQVQLVQSGAEVKKPGASVKVSCKASGDTFTDYYMHWVRQAPGQGLEWMGIINPRAGYTSYALKFQGRVTMTRDTSTSTVYMELSSLRSEDTAVYYCTSGWDVWGQGTLVTVSSASGGGGSGGGGSGGGGSHASDIQMTQSPSSLSASVGDRVTITCRASQSISTWLAWYQQKPGKAPKLLIYAASSLDSGVPSRFSGSGSGTDFTLTISSLQPEDFATYYCQQSYSFPVTFGQGTKVEIKAAAGSGSEQKLISEEDLGKPIPNPLLGLDST,binds,binds
"AB002328_2B07v4 scFv (AF005041) (scFv, V domains shown) VH: QVQLVQSGAEVKKPGASVKVSCKASGDTFTRYYVHWVRQAPGQGLEWMGIINPSGGYASYAQKFQGRVTMTRDTSTSTVYMELSSLRSEDTAVYYCAAGLFIWGQGTLVTVSS VL: DIQMTQSPSSLSASVGDRVTITCRASQSIGRWLAWYQQKPGKAPKLLIYSASNLETGVPSRFSGSGSGTDFTLTISSLQPEDFATYYCQQYNRFPVTFGPGTKVDIK",binds,binds
"AB002417_2A11v4 scFv (AF003822) (scFv, V domains shown) VH: QVQLVQSGAEVKKPGASVKVSCKASGHTFTRYYMHWVRQAPGQGLEWMGIINPSGGYATYAQKFQGRVTMTRDTSTSTVYMELSSLRSEDTAVYYCASGLFIWGQGTLVTVSS VL: DIQMTQSPSSLSASVGDRVTITCRASQSINSWLAWYQQKPGKAPKLLIYATSTLESGVPSRFSGSGSGTDFTLTISSLQPEDFATYYCQQYYSFPVTFGQGTKVEIK",binds,binds
"AB002413_2A11v3 scFv (AF003818) (scFv, V domains shown) VH: QVQLVQSGAEVKKPGASVKVSCKASGHTFTRYYMHWVRQAPGQGLEWMGIINPSGGYATYAQKFQGRVTMTRDTSTSTVYMELSSLRSEDTAVYYCASGLFIWGQGTLVTVSS VL: DIQMTQSPSSLSASVGDRVTITCRASQSINSWLAWYQQKPGKAPKLLIYATSTLESGVPSRFSGSGSGTDFTLTISSLQPEDFATYYCQQYYRFPVTFGQGTKVEIK",binds,binds
"AB002427_2A11v5 scFv (AF003832) (scFv, V domains shown) VH: QVQLVQSGAEVKKPGASVKVSCKASGHTFTRYYMHWVRQAPGQGLEWMGIINPSGGYATYAQKFQGRVTMTRDTSTSTVYMELSSLRSEDTAVYYCASGLFIWGQGTLVTVSS VL: DIQMTQSPSSLSASVGDRVTITCRASQSINSWLAWYQQKPGKAPKLLIYATSTLESGVPSRFSGSGSGTDFTLTISSLQPEDFATYYCQQSYRFPVTFGQGTKVEIK",binds,binds
"AB002365_7A04v2 scFv (AF005095) (scFv, V domains shown) VH: QVQLVQSGAEVKKPGASVKVSCKASGYTFTRYYMHWVRQAPGQGLEWMGIINPRAGYTSYALKFQGRVTMTRDTSTSTVYMELSSLRSEDTAVYYCTSGWDVWGQGTLVTVSS VL: DIQMTQSPSSLSASVGDRVTITCRASQSISTWLAWYQQKPGKAPKLLIYAASSLDSGVPSRFSGSGSGTDFTLTISSLQPEDFATYYCQQSYSFPVTFGQGTKVEIK",binds,binds
"AB002365_7A04v2 scFv (AF003770) (scFv, V domains shown) VH: QVQLVQSGAEVKKPGASVKVSCKASGYTFTRYYMHWVRQAPGQGLEWMGIINPRAGYTSYALKFQGRVTMTRDTSTSTVYMELSSLRSEDTAVYYCTSGWDVWGQGTLVTVSS VL: DIQMTQSPSSLSASVGDRVTITCRASQSISTWLAWYQQKPGKAPKLLIYAASSLDSGVPSRFSGSGSGTDFTLTISSLQPEDFATYYCQQSYSFPVTFGQGTKVEIK",binds,binds
AB002410_2A11v2 scFv (AF003815) (scFv) scFv: MSTSTQVQLVQSGAEVKKPGASVKVSCKASGHTFTRYYMHWVRQAPGQGLEWMGIINPSGGYATYAQKFQGRVTMTRDTSTSTVYMELSSLRSEDTAVYYCASGWFVWGQGTLVTVSSASGGGGSGGGGSGGGGSHASDIQMTQSPSSLSASVGDRVTITCRASQSINSWLAWYQQKPGKAPKLLIYDTSTLESGVPSRFSGSGSGTDFTLTISSLQPEDFATYYCQQSYSFPVTFGQGTKVEIKAAAGSGSEQKLISEEDLGKPIPNPLLGLDST,binds,binds

# More lines, now with the values ahead:
binding [1],binding [2],Binder
binds,binds,AB003007_7A04v6 scFv (AF005087) (scFv) scFv: MSTSTQVQLVQSGAEVKKPGASVKVSCKASGYTFTRYYMHWVRQAPGQGLEWMGIINPRAGYTSYALKFQGRVTMTRDTSTSTVYMELSSLRSEDTAVYYCTSGWEVWGQGTLVTVSSGGGGSGGGGSGGGGSGGGGSDIQMTQSPSSLSASVGDRVTITCRASQSISTWLAWYQQKPGKAPKLLIYAASSLDEGVPSRFSGSGSGTDFTLTISSLQPEDFATYYCQQSYSFPVTFGQGTKVEIKEQKLISEEDLGSGLNDIFEAQKIEWHEGKPIPNPLLGLDST
binds,binds,AB003012_7A04v7 scFv (AF005092) (scFv) scFv: MSTSTQVQLVQSGAEVKKPGASVKVSCKASGYTFTRYYMHWVRQAPGQGLEWMGIINPRAGYTSYALKFQGRVTMTRDTSTSTVYMELSSLRSEDTAVYYCTSGWDVWGQGTLVTVSSGGGGSGGGGSGGGGSGGGGSDIQMTQSPSSLSASVGDRVTITCRASQSISTWLAWYQQKPGKAPKLLIYAASSLDEGVPSRFSGSGSGTDFTLTISSLQPEDFATYYCQQSYSFPVTFGQGTKVEIKEQKLISEEDLGSGLNDIFEAQKIEWHEGKPIPNPLLGLDST
binds,binds,AB003005_7A04v5 scFv (AF005085) (scFv) scFv: MSTSTQVQLVQSGAEVKKPGASVKVSCKASGYTFTRYYMHWVRQAPGQGLEWMGIIQPRAGYTSYALKFQGRVTMTRDTSTSTVYMELSSLRSEDTAVYYCTSGWDVWGQGTLVTVSSGGGGSGGGGSGGGGSGGGGSDIQMTQSPSSLSASVGDRVTITCRASQSISTWLAWYQQKPGKAPKLLIYAASSLDEGVPSRFSGSGSGTDFTLTISSLQPEDFATYYCQQSYSFPVTFGQGTKVEIKEQKLISEEDLGSGLNDIFEAQKIEWHEGKPIPNPLLGLDST
binds,binds,AB002864_2A11v6 scFv (AF005116) (scFv) scFv: MSTSTQVQLVQSGAEVKKPGASVKVSCKASGHTFTRYYMHWVRQAPGQGLEWMGVINPSGGYATYAQKFQGRVTMTRDTSTSTVYMELSSLRSEDTAVYYCASGWDVWGQGTLVTVSSGGGGSGGGGSGGGGSGGGGSDIQMTQSPSSLSASVGDRVTITCRASQSINSWLAWYQQKPGKAPKLLIYATSTLESGVPSRFSGSGSGTDFTLTISSLQPEDFATYYCQQSYSSPVTFGQGTKVEIKEQKLISEEDLGSGLNDIFEAQKIEWHEGKPIPNPLLGLDST
binds,binds,AB003174_2B07v11 scFv (AF005062) (scFv) scFv: MSTSTQVQLVQSGAEVKKPGASVKVSCKASGDTFTRYYVHWVRQAPGQGLEWMGIINPSGGYASYAQKFQGRVTMTRDTSTSTVYMELSSLRSEDTAVYYCAAGLFIWGQGTLVTVSSGGGGSGGGGSGGGGSGGGGSDIQMTQSPSSLSASVGDRVTITCRASQSIGRELAWYQQKPGKAPKLLIYSASNLETGVPSRFSGSGSGTDFTLTISSLQPEDFATYYCQQYNRFPVTFGPGTKVDIKEQKLISEEDLGSGLNDIFEAQKIEWHEGKPIPNPLLGLDST
binds,binds,AB003183_2B07v14 scFv (AF005071) (scFv) scFv: MSTSTQVQLVQSGAEVKKPGASVKVSCKASGDEFTRYYVHWVRQAPGQGLEWMGIQNPSGGYASYAQKFQGRVTMTRDTSTSTVYMELSSLRSEDTAVYYCAAGLFIWGQGTLVTVSSGGGGSGGGGSGGGGSGGGGSDIQMTQSPSSLSASVGDRVTITCRASQSIGRELAWYQQKPGKAPKLLIYDASNLETGVPSRFSGSGSGTDFTLTISSLQPEDFATYYCQQYNRFPVTFGPGTKVDIKEQKLISEEDLGSGLNDIFEAQKIEWHEGKPIPNPLLGLDST
binds,binds,AB003180_2B07v13 scFv (AF005068) (scFv) scFv: MSTSTQVQLVQSGAEVKKPGASVKVSCKASGDEFTRYYVHWVRQAPGQGLEWMGIQNPSGGYASYAQKFQGRVTMTRDTSTSTVYMELSSLRSEDTAVYYCAAGLFIWGQGTLVTVSSGGGGSGGGGSGGGGSGGGGSDIQMTQSPSSLSASVGDRVTITCRASQSIGRWLAWYQQKPGKAPKLLIYSASNLETGVPSRFSGSGSGTDFTLTISSLQPEDFATYYCQQYNRFPVTFGPGTKVDIKEQKLISEEDLGSGLNDIFEAQKIEWHEGKPIPNPLLGLDST
binds,binds,AB003178_2B07v12 scFv (AF005066) (scFv) scFv: MSTSTQVQLVQSGAEVKKPGASVKVSCKASGDEFTRYYVHWVRQAPGQGLEWMGIINPSGGYASYAQKFQGRVTMTRDTSTSTVYMELSSLRSEDTAVYYCAAGLFIWGQGTLVTVSSGGGGSGGGGSGGGGSGGGGSDIQMTQSPSSLSASVGDRVTITCRASQSIGRWLAWYQQKPGKAPKLLIYSASNLETGVPSRFSGSGSGTDFTLTISSLQPEDFATYYCQQYNRFPVTFGPGTKVDIKEQKLISEEDLGSGLNDIFEAQKIEWHEGKPIPNPLLGLDST
